Experimental data from the supplement of paper PMC10849652.
The other results are listed elsewhere or left out.

Protein sequences, listed by entry. Tags and fused reporters are not part of them. Lines headed by an entry give the natural chain unless they say otherwise; changes in a name come on top.
UniProt Q8N3X6: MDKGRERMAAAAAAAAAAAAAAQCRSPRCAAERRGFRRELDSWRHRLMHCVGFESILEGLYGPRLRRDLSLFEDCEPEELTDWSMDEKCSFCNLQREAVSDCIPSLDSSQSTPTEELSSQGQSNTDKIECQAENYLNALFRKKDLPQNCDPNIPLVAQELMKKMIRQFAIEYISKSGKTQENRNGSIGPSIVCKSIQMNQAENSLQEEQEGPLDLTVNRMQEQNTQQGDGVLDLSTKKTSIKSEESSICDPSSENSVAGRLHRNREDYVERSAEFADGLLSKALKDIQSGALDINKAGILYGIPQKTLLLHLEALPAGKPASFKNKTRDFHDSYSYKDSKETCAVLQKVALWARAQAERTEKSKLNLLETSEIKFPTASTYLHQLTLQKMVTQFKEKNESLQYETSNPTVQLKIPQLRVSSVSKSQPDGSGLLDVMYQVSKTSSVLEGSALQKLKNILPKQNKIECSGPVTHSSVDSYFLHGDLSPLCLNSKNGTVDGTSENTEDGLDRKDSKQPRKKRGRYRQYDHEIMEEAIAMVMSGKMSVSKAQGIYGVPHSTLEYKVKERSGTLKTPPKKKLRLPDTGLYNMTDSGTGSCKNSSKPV
UniProt Q969L4: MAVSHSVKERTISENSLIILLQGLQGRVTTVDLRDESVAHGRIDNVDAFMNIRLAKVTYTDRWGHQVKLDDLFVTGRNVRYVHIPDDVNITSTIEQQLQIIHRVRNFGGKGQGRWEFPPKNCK
UniProt Q6ZUX7: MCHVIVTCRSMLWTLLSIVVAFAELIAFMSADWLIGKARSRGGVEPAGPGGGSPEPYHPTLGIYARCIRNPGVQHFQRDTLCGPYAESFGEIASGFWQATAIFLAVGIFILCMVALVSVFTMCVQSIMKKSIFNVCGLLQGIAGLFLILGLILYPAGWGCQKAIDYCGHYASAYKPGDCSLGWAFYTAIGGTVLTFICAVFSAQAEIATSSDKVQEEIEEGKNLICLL
UniProt Q53QV2: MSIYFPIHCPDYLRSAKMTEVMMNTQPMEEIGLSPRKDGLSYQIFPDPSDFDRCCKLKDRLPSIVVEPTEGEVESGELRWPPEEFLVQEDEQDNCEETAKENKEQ
UniProt Q8NC56: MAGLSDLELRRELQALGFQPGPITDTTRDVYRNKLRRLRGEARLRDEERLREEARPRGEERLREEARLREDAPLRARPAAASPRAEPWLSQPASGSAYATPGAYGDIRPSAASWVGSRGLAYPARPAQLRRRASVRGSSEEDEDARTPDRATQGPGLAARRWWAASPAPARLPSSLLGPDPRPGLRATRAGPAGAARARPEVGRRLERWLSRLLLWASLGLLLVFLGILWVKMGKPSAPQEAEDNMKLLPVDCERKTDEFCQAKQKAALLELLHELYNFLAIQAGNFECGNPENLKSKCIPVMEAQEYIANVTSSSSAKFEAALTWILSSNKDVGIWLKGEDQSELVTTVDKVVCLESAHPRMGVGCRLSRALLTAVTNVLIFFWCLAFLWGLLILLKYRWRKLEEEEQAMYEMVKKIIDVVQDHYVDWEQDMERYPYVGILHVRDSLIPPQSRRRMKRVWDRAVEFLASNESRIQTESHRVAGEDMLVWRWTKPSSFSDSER
UniProt Q99732: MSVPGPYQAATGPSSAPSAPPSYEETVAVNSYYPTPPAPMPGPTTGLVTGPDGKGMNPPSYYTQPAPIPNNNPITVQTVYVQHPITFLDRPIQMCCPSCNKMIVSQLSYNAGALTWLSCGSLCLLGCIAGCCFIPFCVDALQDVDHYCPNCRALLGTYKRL
UniProt Q1L5Z9: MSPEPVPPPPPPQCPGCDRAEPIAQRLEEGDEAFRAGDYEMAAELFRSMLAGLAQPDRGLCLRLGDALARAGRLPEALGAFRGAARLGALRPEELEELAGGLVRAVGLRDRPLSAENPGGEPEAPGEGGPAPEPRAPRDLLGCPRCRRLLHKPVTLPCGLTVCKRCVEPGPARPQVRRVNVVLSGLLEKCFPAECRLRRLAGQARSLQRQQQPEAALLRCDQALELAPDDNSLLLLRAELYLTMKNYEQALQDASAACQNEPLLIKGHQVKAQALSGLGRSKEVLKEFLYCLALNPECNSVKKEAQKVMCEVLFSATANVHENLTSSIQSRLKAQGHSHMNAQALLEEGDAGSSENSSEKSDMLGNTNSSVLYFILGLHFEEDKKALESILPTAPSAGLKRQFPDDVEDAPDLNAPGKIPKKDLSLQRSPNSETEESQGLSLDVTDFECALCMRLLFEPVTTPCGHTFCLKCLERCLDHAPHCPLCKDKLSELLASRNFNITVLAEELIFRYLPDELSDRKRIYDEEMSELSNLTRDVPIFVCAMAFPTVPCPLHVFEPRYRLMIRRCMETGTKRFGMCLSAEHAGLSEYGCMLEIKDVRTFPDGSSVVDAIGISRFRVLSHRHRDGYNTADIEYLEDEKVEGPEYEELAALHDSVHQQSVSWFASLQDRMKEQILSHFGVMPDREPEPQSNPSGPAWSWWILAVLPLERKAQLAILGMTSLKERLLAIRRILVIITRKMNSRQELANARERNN
UniProt Q86WA8: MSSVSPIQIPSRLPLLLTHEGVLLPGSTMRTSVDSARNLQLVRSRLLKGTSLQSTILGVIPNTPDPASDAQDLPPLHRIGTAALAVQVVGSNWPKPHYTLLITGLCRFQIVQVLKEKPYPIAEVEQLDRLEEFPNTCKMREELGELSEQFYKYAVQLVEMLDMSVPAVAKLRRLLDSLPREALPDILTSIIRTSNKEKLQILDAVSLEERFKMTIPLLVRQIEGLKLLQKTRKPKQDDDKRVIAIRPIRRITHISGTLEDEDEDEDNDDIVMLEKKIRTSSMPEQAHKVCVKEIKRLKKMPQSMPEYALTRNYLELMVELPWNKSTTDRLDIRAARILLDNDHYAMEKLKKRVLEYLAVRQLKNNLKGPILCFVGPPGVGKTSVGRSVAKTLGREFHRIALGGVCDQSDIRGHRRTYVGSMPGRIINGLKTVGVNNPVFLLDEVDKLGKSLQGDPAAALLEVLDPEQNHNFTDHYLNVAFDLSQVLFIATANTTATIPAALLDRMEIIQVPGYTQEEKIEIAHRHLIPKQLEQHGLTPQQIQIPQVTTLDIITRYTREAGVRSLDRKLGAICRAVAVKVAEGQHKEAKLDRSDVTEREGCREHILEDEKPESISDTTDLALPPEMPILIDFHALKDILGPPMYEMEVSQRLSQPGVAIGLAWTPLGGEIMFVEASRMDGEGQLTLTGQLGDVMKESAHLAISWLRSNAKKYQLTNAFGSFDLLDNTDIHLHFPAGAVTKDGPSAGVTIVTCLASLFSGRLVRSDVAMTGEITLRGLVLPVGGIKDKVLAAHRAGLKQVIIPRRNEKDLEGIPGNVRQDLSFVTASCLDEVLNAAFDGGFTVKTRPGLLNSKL
UniProt Q86WU2: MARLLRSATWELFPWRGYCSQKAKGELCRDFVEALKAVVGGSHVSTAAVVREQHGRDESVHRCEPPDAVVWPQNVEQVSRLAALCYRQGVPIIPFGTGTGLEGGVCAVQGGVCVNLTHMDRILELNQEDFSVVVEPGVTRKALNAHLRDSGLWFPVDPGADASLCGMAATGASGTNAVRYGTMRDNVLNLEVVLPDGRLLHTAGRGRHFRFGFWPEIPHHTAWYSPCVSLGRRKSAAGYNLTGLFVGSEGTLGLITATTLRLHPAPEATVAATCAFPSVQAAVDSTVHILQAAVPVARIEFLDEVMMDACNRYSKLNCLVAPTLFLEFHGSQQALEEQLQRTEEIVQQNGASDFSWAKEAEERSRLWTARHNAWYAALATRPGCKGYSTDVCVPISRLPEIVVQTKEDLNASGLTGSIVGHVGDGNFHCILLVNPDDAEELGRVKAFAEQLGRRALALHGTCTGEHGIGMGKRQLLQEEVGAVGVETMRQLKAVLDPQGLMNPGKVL
UniProt Q86X29: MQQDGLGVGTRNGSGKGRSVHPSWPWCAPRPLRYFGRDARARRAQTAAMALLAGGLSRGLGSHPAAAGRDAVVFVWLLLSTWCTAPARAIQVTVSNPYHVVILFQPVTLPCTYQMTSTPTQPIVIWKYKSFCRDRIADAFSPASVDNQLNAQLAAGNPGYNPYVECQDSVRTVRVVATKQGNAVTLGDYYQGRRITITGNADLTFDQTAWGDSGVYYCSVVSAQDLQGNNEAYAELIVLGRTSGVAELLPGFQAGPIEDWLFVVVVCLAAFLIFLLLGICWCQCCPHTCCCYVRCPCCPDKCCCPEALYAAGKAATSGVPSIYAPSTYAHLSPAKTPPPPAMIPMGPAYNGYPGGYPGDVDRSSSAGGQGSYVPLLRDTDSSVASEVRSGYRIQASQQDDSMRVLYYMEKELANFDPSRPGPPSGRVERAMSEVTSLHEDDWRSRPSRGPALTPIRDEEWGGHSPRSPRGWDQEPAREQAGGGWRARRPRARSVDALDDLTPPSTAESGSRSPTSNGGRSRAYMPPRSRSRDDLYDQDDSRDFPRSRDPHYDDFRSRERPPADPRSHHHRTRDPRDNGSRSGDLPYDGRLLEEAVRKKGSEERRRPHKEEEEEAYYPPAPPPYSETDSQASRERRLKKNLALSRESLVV
UniProt O95835: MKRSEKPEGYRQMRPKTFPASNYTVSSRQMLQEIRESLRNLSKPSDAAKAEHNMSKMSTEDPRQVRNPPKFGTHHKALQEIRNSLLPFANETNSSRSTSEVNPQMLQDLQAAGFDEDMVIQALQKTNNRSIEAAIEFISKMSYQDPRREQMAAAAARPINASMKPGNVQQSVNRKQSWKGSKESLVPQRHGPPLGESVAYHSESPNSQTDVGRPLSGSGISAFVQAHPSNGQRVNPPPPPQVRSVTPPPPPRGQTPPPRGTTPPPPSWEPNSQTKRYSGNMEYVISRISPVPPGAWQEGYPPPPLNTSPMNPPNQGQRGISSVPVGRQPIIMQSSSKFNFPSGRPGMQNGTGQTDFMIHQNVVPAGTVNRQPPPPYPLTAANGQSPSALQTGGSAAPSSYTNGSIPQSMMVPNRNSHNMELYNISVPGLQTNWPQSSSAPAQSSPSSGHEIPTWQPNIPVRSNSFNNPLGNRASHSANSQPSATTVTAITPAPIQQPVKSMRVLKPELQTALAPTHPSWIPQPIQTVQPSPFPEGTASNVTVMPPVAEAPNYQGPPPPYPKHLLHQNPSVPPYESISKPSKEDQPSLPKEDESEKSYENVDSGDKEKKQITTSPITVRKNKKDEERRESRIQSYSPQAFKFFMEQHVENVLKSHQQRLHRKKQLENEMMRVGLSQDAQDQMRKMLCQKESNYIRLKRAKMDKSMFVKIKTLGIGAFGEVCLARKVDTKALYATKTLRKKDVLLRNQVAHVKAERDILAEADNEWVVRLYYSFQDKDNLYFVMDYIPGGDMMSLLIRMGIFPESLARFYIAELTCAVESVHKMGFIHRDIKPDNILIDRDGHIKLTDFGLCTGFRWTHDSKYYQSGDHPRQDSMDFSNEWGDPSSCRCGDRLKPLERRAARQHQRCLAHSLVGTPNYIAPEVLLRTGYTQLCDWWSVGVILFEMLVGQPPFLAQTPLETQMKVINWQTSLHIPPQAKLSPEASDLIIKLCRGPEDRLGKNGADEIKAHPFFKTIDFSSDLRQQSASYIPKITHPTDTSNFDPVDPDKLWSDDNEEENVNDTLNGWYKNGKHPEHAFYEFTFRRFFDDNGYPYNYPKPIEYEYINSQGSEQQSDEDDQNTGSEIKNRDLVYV
UniProt Q8WVP7: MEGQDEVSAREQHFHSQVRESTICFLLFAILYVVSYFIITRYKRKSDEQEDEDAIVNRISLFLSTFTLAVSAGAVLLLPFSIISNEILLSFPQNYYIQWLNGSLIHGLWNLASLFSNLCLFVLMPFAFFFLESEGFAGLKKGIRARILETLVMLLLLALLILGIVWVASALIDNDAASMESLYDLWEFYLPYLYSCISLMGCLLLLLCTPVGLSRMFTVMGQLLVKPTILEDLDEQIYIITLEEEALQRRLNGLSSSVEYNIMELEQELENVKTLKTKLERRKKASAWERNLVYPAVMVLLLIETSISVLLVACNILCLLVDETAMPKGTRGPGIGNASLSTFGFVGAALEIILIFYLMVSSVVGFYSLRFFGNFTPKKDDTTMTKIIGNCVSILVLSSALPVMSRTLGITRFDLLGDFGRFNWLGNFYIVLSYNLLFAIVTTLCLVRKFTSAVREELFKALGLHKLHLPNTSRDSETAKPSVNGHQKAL
UniProt Q52LA3: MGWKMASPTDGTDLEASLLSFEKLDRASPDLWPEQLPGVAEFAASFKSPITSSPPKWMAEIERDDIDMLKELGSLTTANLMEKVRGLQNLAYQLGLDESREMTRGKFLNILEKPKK
UniProt P23490: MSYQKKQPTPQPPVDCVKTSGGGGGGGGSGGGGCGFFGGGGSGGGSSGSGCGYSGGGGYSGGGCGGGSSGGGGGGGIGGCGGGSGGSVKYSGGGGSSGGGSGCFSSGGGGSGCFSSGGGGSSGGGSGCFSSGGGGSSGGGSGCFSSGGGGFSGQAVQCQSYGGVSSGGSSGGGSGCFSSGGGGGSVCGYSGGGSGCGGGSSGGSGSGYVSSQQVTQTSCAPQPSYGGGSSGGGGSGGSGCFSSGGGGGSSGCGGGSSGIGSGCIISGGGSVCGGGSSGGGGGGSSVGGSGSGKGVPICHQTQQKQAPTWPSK

Key:
Assay in all cases: log2 fold change, soluble protein after heating vs DMSO (PISA); higher = thermal stabilisation; K562 lysate, 10 uM; active = over 0.2 and 3.5 SD of the protein, either way, in both replicates (recomputed)
[1] = compound: CCCS(=O)(=O)Nc1ccc(F)c(C(=O)c2c[nH]c3ncc(Cl)cc23)c1F
Procedure, shortened: (§1)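 Following dounce homogenisation of K562 pellets in PBS pH 7.4 with 1 mM MgCl2, crude extract at 1 mg/mL protein was incubated for 30 min with 10 μM compound. Aliquots were then heated for 3 min over 48°C-58°C and pooled, NP-40 was added to 0.5% at 4°C, and soluble protein was recovered as the supernatant at 21,000xg for 90 min. Channel-sum-equalised TMTpro 16plex LC-MS/MS quantified this protein. Each value, from duplicates, is a log-two fold change in thermal stability relative to solvent controls.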

barasertib = compound: CCN(CCCOc1ccc2c(Nc3cc(CC(=O)Nc4cccc(F)c4)[nH]n3)ncnc2c1)CCOP(=O)(O)O [barasertib]
Procedure, shortened: as §1

volasertib = compound: CC[C@@H]1C(=O)N(C)c2cnc(Nc3ccc(C(=O)N[C@H]4CC[C@H](N5CCN(CC6CC6)CC5)CC4)cc3OC)nc2N1C(C)C [volasertib]
Procedure, shortened: as §1

[2] = compound: CCn1c(C(=O)N(C2CC2)C2CC2)cc2c3c(ncn3C)c(Nc3cc(C)n(C)n3)nc21
Procedure, shortened: as §1

[3] = compound: CCn1cc(-c2ccnc3[nH]c(-c4cccc(CN(C)C)c4)cc23)c(-c2ccc(NC(=O)N(C)C)cc2)n1
Procedure, shortened: as §1

[4] = compound: CN1CCC(CNc2ccc3ncc(-c4cccc(OC(F)(F)F)c4)n3n2)CC1
Procedure, shortened: as §1

alvocidib = compound: CN1CC[C@H](c2c(O)cc(O)c3c(=O)cc(-c4ccccc4Cl)oc23)[C@H](O)C1 [alvocidib]
Procedure, shortened: as §1

Tubastatin A = compound: CN1CCc2c(c3ccccc3n2Cc2ccc(C(=O)NO)cc2)C1 [Tubastatin A]
Procedure, shortened: as §1

alisertib = compound: COc1cc(Nc2ncc3c(n2)-c2ccc(Cl)cc2C(c2c(F)cccc2OC)=NC3)ccc1C(=O)O [alisertib]
Procedure, shortened: as §1

[5] = compound: COc1cc2nc(-c3cc(F)ccc3O)nc(N[C@@H]3CNC[C@H]3C(C)(C)O)c2cc1OC
Procedure, shortened: as §1

gefitinib = compound: COc1cc2ncnc(Nc3ccc(F)c(Cl)c3)c2cc1OCCCN1CCOCC1 [gefitinib]
Procedure, shortened: as §1

sotrastaurin = compound: CN1CCN(c2nc(C3=C(c4c[nH]c5ccccc45)C(=O)NC3=O)c3ccccc3n2)CC1 [sotrastaurin]
Procedure, shortened: as §1

[6] = compound: CC[C@@H]1C(=O)N(C)c2cnc(Nc3ccc(C(=O)NC4CCN(C)CC4)cc3OC)nc2N1C1CCCC1
Procedure, shortened: as §1

saracatinib = compound: CN1CCN(CCOc2cc(OC3CCOCC3)c3c(Nc4c(Cl)ccc5c4OCO5)ncnc3c2)CC1 [saracatinib]
Procedure, shortened: as §1

[7] = compound: CNC(=O)C1=CC=CC=C1NC2=NC(=NC=C2Cl)NC3=C(C=C(C=C3)N4CCOCC4)OC
Procedure, shortened: as §1

[8] = compound: CNc1nc(-c2ccc3c(N)n[nH]c3c2)cc(N2C[C@@H](C(=O)NC3CCCCC3)CC[C@H]2C)n1
Procedure, shortened: as §1

encorafenib = compound: COC(=O)N[C@@H](C)CNc1nccc(-c2cn(C(C)C)nc2-c2cc(Cl)cc(NS(C)(=O)=O)c2F)n1 [encorafenib]
Procedure, shortened: as §1

[9] = compound: COC(=O)[C@H](CCSC)NC(=O)C1=C(C=C(C=C1)NC[C@H](CS)N)C2=CC=CC=C2
Procedure, shortened: as §1

vemurafenib = compound: CCCS(=O)(=O)Nc1ccc(F)c(C(=O)c2c[nH]c3ncc(-c4ccc(Cl)cc4)cc23)c1F [vemurafenib]
Procedure, shortened: as §1

defactinib = compound: CNC(=O)c1ccc(Nc2ncc(C(F)(F)F)c(NCc3nccnc3N(C)S(C)(=O)=O)n2)cc1 [defactinib]
Procedure, shortened: as §1

Measured: log2 fold change

LDHA (UniProt F5GZQ4)
inactive: [1] 0.035 | barasertib 0.293 | volasertib -0.052 | [2] -0.214 | [3] 0.548 | [4] 0.045 | alvocidib 0.09 | Tubastatin A 0.147 | alisertib -0.179 | [5] 0.059 | gefitinib -0.278

LIMD2 (UniProt Q9BT23)
inactive: barasertib 0.151 | sotrastaurin 0.028

LPGAT1 (UniProt Q92604)
inactive: [6] -0.058 | [2] 0.127 | [3] 0.137 | [4] -0.044 | saracatinib 0.084 | alvocidib 0.123 | Tubastatin A 0.026 | [7] -0.094 | [8] 0.087 | encorafenib 0.205 | [9] 0.051 | alisertib 0.155 | gefitinib 0.227

LIN28A (UniProt Q9H9Z2)
inactive: barasertib 0.026 | [3] 0.104 | [4] 0.103 | alvocidib -0.036 | [7] -0.025 | alisertib -0.01 | gefitinib 0.076

LCORL (UniProt Q8N3X6)
inactive: vemurafenib -0.128 | [2] -0.197 | [3] -0.09 | [4] 0.041 | alvocidib 0.026 | Tubastatin A -0.039 | [7] -0.036 | defactinib -0.23

LSM10 (UniProt Q969L4)
inactive: [1] -0.086 | barasertib 0.018 | volasertib 0 | [2] -0.079 | [3] -0.064 | [4] -0.009 | saracatinib -0.012 | alvocidib -0.052 | Tubastatin A -0.012 | [7] -0.215 | [8] -0.215 | [5] 0.121

LRRC25 (UniProt Q8N386)
inactive: [1] -0.042 | [6] 0.021 | volasertib 0.107 | sotrastaurin 0.079 | encorafenib 0.002 | [9] -0.066 | [5] -0.067

LHFPL2 (UniProt Q6ZUX7)
inactive: barasertib -0.073 | sotrastaurin -0.008

LBH (UniProt Q53QV2)
inactive: [6] 0.145 | [2] 0.136 | [3] 0.09 | [4] -0.024 | saracatinib 0.05 | alvocidib 0.087 | Tubastatin A 0.143 | [7] 0.147 | [8] -0.057 | encorafenib -0.11 | [9] 0.063

LSM14B (UniProt Q9BX40)
inactive: [1] -0.001 | barasertib -0.12 | volasertib 0.037 | [2] -0.033 | sotrastaurin -0.131 | Tubastatin A 0.031 | [7] 0.18 | alisertib 0.036 | [5] -0.072 | gefitinib -0.08

LRP6 (UniProt O75581)
inactive: barasertib -0.066 | [6] -0.085 | [2] -0.077 | saracatinib -0.055 | sotrastaurin 0.039 | Tubastatin A 0.122 | [7] -0.022 | [8] 0.005 | encorafenib -0.309 | [9] 0.049

LNX1 (UniProt Q8TBB1)
inactive: saracatinib 0.334 | sotrastaurin -0.057 | [8] 0.195

LIPT2 (UniProt A6NK58)
inactive: [1] 0.031 | barasertib 0.129 | [6] -0.057 | volasertib -0.054 | encorafenib 0.004 | [9] -0.129 | [5] -0.002

LEMD2 (UniProt Q8NC56)
inactive: [1] 0.038 | [6] 0 | volasertib 0.04 | [2] 0.005 | [3] 0 | [4] -0.017 | saracatinib 0.072 | sotrastaurin 0.009 | alvocidib -0.004 | Tubastatin A -0.03 | [7] 0.072 | [8] -0.003 | encorafenib -0.001 | [9] 0.087 | [5] 0.016

LITAF (UniProt Q99732)
inactive: [1] 0.071 | [6] 0.002 | volasertib -0.015 | [2] 0.082 | saracatinib 0.012 | sotrastaurin -0.003 | Tubastatin A 0.039 | [7] 0.024 | [8] -0.144 | encorafenib -0.006 | [9] -0.216 | [5] -0.017

LRP10 (UniProt Q7Z4F1)
inactive: barasertib 0.233 | [6] 0.161 | [2] -0.017 | [3] 0.05 | [4] -0.11 | saracatinib 0.101 | alvocidib -0.084 | Tubastatin A 0.062 | [7] 0.215 | [8] -0.022 | encorafenib 0.313 | [9] -0.072

LIG1 isoform 3 (UniProt P18858)
inactive: [6] 0.114 | [2] -0.068 | Tubastatin A -0.005 | encorafenib -0.053 | [9] 0.211

LONRF2 (UniProt Q1L5Z9)
inactive: [6] 0.155 | [3] 0.093 | [4] -0.05 | saracatinib 0.077 | sotrastaurin 0.154 | alvocidib -0.015 | [7] 0.079 | [8] 0.018 | encorafenib 0.042 | [9] -0.11 | alisertib -0.046 | gefitinib 0.068

LBHD1 (UniProt Q9BQE6)
inactive: sotrastaurin -0.017

LONP2 (UniProt Q86WA8)
inactive: vemurafenib -0.167 | [3] -0.185 | [4] 0.142 | alvocidib -0.208 | defactinib 0.018

LRP5 (UniProt O75197)
inactive: [6] 0.151 | saracatinib 0.382 | [7] 0.042 | [8] -0.101 | encorafenib -0.025 | [9] 0.014

LEG1 (UniProt Q6P5S2)
inactive: [1] -0.049 | barasertib 0 | [6] -0.084 | volasertib -0.013 | [2] 0.101 | saracatinib -0.093 | sotrastaurin 0.077 | Tubastatin A 1.27 | [7] 0.156 | [8] 0.116 | encorafenib -0.074 | [9] 0.267 | alisertib 0.166 | [5] 0.04 | gefitinib -0.023

LRRC45 (UniProt Q96CN5)
inactive: saracatinib 0.003 | [8] -0.089

LRG1 (UniProt P02750)
inactive: barasertib 0.128 | [6] -0.047 | [3] 0.006 | [4] -0.023 | sotrastaurin 0.018 | alvocidib -0.051 | [7] -0.392 | encorafenib 0.105 | [9] 0.038

LDHD (UniProt Q86WU2)
inactive: barasertib 0.022 | [6] 0.093 | [3] -0.027 | [4] 0.214 | alvocidib -0.029 | encorafenib 0.066 | [9] -0.139

LSR isoform 3 (UniProt Q86X29)
inactive: [3] -0.057 | [4] -0.028 | sotrastaurin 0.016 | alvocidib -0.133

2 entries drawn at random from the list so far:
LRRC45 (UniProt Q96CN5)
inactive: saracatinib 0.003 | [8] -0.089

LDHD (UniProt Q86WU2)
inactive: barasertib 0.022 | [6] 0.093 | [3] -0.027 | [4] 0.214 | alvocidib -0.029 | encorafenib 0.066 | [9] -0.139

Remaining list, next part.

LINC00526 (UniProt Q96FQ7)
inactive: sotrastaurin 0.127

LEF1 (UniProt Q9UJU2)
inactive: vemurafenib 0.056 | [2] 0.048 | [3] 0.013 | [4] 0.039 | sotrastaurin -0.028 | alvocidib -0.013 | Tubastatin A -0.303 | defactinib 0.029

LEPROT (UniProt O15243)
inactive: [1] 0.112 | barasertib 0.042 | [6] 0.144 | volasertib 0.102 | [2] -0.086 | [3] -0.043 | [4] -0.02 | sotrastaurin -0.009 | alvocidib 0.006 | Tubastatin A 0.01 | [7] 0 | encorafenib -0.003 | [9] 0.01 | [5] 0.022

LRRC8C (UniProt E9PHY6)
inactive: vemurafenib -0.196 | [7] -0.143 | defactinib -0.108 | alisertib 0.089 | gefitinib 0.165

LCOR isoform 3 (UniProt Q96JN0)
inactive: [1] 0.075 | volasertib 0.083 | [5] 0.079

LATS1 (UniProt O95835)
inactive: [3] -0.028 | [4] -0.019 | saracatinib -0.018 | alvocidib -0.045 | [7] 0.085 | [8] 0.069 | alisertib 0.171 | gefitinib 0.045

LMBR1 isoform 3 (UniProt Q8WVP7)
inactive: barasertib 0.038 | [3] -0.08 | [4] 0.094 | sotrastaurin -0.053 | alvocidib -0.059

LRPPRC (UniProt H7C3W8)
inactive: vemurafenib 0.566 | defactinib -0.063

LCA5 (UniProt Q86VQ0)
inactive: vemurafenib 0.057 | [6] 0.127 | sotrastaurin -0.073 | defactinib 0.098 | encorafenib -0.05 | [9] 0.126 | alisertib -0.207 | gefitinib 0.229

LEMD3 (UniProt Q9Y2U8)
inactive: [1] 0.065 | barasertib -0.125 | volasertib -0.024 | [2] 0.081 | [3] 0.04 | [4] 0.005 | sotrastaurin -0.027 | alvocidib -0.009 | Tubastatin A -0.166 | [7] -0.052 | alisertib 0.071 | [5] -0.066 | gefitinib -0.051

LIN52 (UniProt Q52LA3)
inactive: [1] 0.068 | volasertib -0.21 | [2] -0.04 | saracatinib -0.121 | sotrastaurin 0.002 | Tubastatin A 0.048 | [7] -0.015 | [8] -0.098 | [5] 0.05

LOR (UniProt P23490)
inactive: barasertib 0.006

LRCH1 isoform 3 (UniProt Q9Y2L9)
inactive: [1] 0.054 | barasertib 0.098 | volasertib -0.017 | [2] 0.42 | saracatinib 0.014 | Tubastatin A -0.338 | [8] 0.016 | alisertib 0.173 | [5] -0.022 | gefitinib -0.071

LDHA isoform 4 (UniProt P00338)
inactive: [1] 0.109 | volasertib -0.043 | [3] -0.716 | [4] 0.093 | alvocidib -0.111 | [5] 0.025
